Results reported in PubChem BioAssay AID540276 (National Center for Advancing Translational Sciences (NCATS), 2011).
In all, about 300,000 compounds went through this assay and about 5,400 (1.8%) were called active. Inconclusive results, whose numbers are uncertain, are shown with a selection of clear calls. Calls follow the shape of the full dose curve; tested in HEK293 cells. Where the call is inconclusive, the potency comes from a doubtful curve fit.

assay: qHTS for inhibitors of binding or entry into cells for Marburg Virus; conditions: Marburg virus pseudotyped entry inhibition, cell reporter; activity change, negative = inhibition: at 37.8 µM (top of the series) unless noted
% is scaled to controls: 0 for no effect and ±100 for the full control effect; potency is read from the fitted curve at half-maximal effect.

| SMILES | Potency | activity change, negative = inhibition |
| --- | --- | --- |
| Cc1nonc1OCCN1CCN(c2ccc([N+](=O)[O-])cc2)CC1 | inconclusive: 35.5 µM [inhibitor, single point] | – |
| CCc1nc2ccc(C(=O)NCc3ccco3)cc2nc1CC | – | inactive: -25.9% [at 46.1 µM] |
| O=C1CC(/C=C/c2cccnc2)=Nc2ccccc2N1 | inconclusive: 22.4 µM [inhibitor, single point] | – |
| COc1ccc(CCNc2ncnc3[nH]ncc23)cc1OC | inconclusive: 5.01 µM [inhibitor, partial curve] | – |
| NC(=O)c1ccc(N2CCCCCC2)c([N+](=O)[O-])c1 | – | inactive: 11.5% [at 46.1 µM] |
| COc1ccc(Cl)cc1S(=O)(=O)N1CCCC(C(=O)NCc2ccccc2)C1 (stereo unspecified) | – | inactive: -27.8% |
| COc1ccc(Nc2nc(N3CCCC3)nc3ccccc23)c(OC)c1 | inconclusive: 29.1 µM [inhibitor, single point] | – |
| CCN(CC)C(=O)Oc1ccc2ccccc2c1Br | inconclusive: 2.24 µM [inhibitor, full curve, poor fit] | – |
| Cc1ccc(-n2nc(C(=O)N3CCOCC3)cc2-c2ccc(Cl)cc2)cc1 | inconclusive: 1 µM [inhibitor, partial curve, poor fit] | – |
| Nc1nc2ccccc2n1CCOc1ccccc1Cl | active: 11.2 µM | – |
| COc1cc2c(cc1OC)C(COc1ccccc1OC)N(C(=O)C(C)(C)C)CC2 (stereo unspecified) | – | inactive: -12.3% [at 46.1 µM] |
| O=C(CCN1C(=O)/C(=C/c2ccco2)SC1=S)Nc1ccc(O)cc1C(=O)O | – | inactive: 13.8% |
| CCOc1ccc(NC(=O)c2cc3c(s2)-c2ccccc2OC3)cc1 | – | inactive: 3.15% [at 46.1 µM] |
| O=C(NCc1cccnc1)/C(=C\c1ccc(-c2ccc(Cl)c(Cl)c2)o1)S(=O)(=O)c1ccccc1 | inconclusive: 25.1 µM [inhibitor, single point] | – |
| O=C(CSc1nc2ncc(Br)cc2[nH]1)c1cccc([N+](=O)[O-])c1 | – | inactive: -24.1% |
| Cc1cnc(NC(=O)CN2C(=O)C3CC=CCC3C2=O)s1 (stereo unspecified) | inconclusive: 11.6 µM [inhibitor, partial curve, poor fit] | – |
| O=C(NC(Cc1ccccc1)C(=O)O)/C(=C/c1ccc([N+](=O)[O-])cc1)NC(=O)c1ccco1 (stereo unspecified) | inconclusive: 11.2 µM [activator, partial curve, poor fit] | – |
| COc1cc2c(-c3ccc(O)cc3)nc3c(c(C)nn3-c3ccccc3)c2cc1OC | – | inactive: -15.5% |
| CCCCN(C)C1CCN(C(=S)Nc2cccc(SC)c2)CC1 | inconclusive: 35.5 µM [inhibitor, single point] | – |
| CCS(=O)(=O)N1Cc2ccccc2CC1C(=O)Nc1nc2ccc(C)cc2s1 (stereo unspecified) | inconclusive: 20.6 µM [inhibitor, single point] | – |
| CCOC(=O)c1c(NC(=O)c2cnn3c2NC(c2cccc(OC)c2)CC3C(F)(F)F)sc2c1CCCC2 (stereo unspecified) | inconclusive: 0.112 µM [inhibitor, full curve, poor fit] | – |
| COc1ccc2cc3c(N)c(C(=O)NCc4ccco4)sc3nc2c1 | inconclusive: 18.3 µM [inhibitor, partial curve, poor fit] | – |
| COc1ccc2[nH]cc(C(O)CN3CCC(C(N)=O)CC3)c2c1 (stereo unspecified) | – | inactive: 11.4% |
| O=C1OC(Nc2ccc(Br)cc2F)c2ccccc21 (stereo unspecified) | inconclusive: 5.8 µM [activator, full curve, poor fit] | – |

Whole records, looked up by structure. Order of values: Potency | activity change, negative = inhibition
CCc1nc2ccc(C(=O)NCc3ccco3)cc2nc1CC is entered as – | inactive: -25.9% [at 46.1 µM]
COc1ccc2cc3c(N)c(C(=O)NCc4ccco4)sc3nc2c1 is entered as inconclusive: 18.3 µM [inhibitor, partial curve, poor fit] | –
Cc1nonc1OCCN1CCN(c2ccc([N+](=O)[O-])cc2)CC1 is entered as inconclusive: 35.5 µM [inhibitor, single point] | –
Nc1nc2ccccc2n1CCOc1ccccc1Cl is entered as active: 11.2 µM | –

The list continues.

| SMILES | Potency | activity change, negative = inhibition |
| --- | --- | --- |
| COc1ccc(-c2noc(CCCC(=O)NC3CCCC3)n2)cc1 | inconclusive: 6.31 µM [inhibitor, full curve, poor fit] | – |
| CCCCOc1ccccc1C(=O)Nc1nonc1-c1ccccc1 | – | inactive: 1.08% [at 46.1 µM] |
| CC(=O)c1c(C)[nH]c(C(=O)Nc2ccc(F)cc2F)c1C | – | inactive: -3.18% [at 46.1 µM] |
| CC(C)CC(=O)NCC1(N(C)C)CCCCC1 | – | inactive: -25.6% [at 46.1 µM] |
| CN(Cc1ccccc1)C(=O)C1CCN(Cc2ccc(F)cc2)CC1 | inconclusive: 17.8 µM [inhibitor, single point] | – |
| CCOC(=O)N1CCN(C(=O)c2cc(COc3c(F)cccc3F)on2)CC1 | inconclusive: 6.31 µM [activator, single point] | – |
| Cc1ccc(C)c(N(C(=O)c2snc(C(N)=O)c2N)C(C(=O)NCC2CCCO2)c2ccc(C)o2)c1 (stereo unspecified) | inconclusive: 11.2 µM [inhibitor, partial curve, poor fit] | – |
| CCOc1ccc(N(CC(=O)N2CCCC2)S(=O)(=O)c2ccc(F)cc2)cc1 | – | inactive: -7.36% |
| CCCn1nnc(NC(=O)c2cccnc2Cl)n1 | – | inactive: 5.16% |
| CC(OC(=O)Cc1c[nH]c2ccccc12)C(=O)N(C)c1ccccc1 (stereo unspecified) | – | inactive: -19.4% |
| CCc1ccc(OCCCC(=O)Nc2cccc(C(=O)O)c2)cc1 | – | inactive: 0.578% |
| COC(=O)CSc1n[nH]c(-c2ccncc2)n1 | inconclusive: 7.08 µM [activator, partial curve, poor fit] | – |
| CCCOc1ccc2oc(=O)c3c(c2c1)CCCN3C(=O)CN(C)Cc1ccccc1 | inconclusive: 22.4 µM [inhibitor, single point] | – |
| Cc1ccc(N(Cc2ccccc2)C(=O)c2ccc(Cl)c(S(=O)(=O)N3CCOCC3)c2)cc1 | inconclusive: 3.16 µM [inhibitor, single point] | – |
| COC(=O)[C@H](Cc1ccccc1)NC(=O)N1CCN(Cc2ccccc2)CC1 | inconclusive: 13 µM [inhibitor, partial curve] | – |
| O=C(NCC(=O)N(c1ccc(F)cc1)C(C(=O)NC1CCCCC1)c1cccnc1)c1ccco1 (stereo unspecified) | – | inconclusive: 4.08% [activator] [at 46.1 µM] |
| CCN(CC)CCN(Cc1cc2cc(C)ccc2[nH]c1=O)C(=S)Nc1ccccc1 | inconclusive: 6.31 µM [inhibitor, single point] | – |
| C#CC[N+](CC)(CC)CC#Cc1ccccc1 | – | inactive: 9.44% |
| Cc1cc(Cl)ccc1OCC(=O)O[C@@H](C)C(=O)N(C)C | – | inactive: 3.56% |
| COC(=O)C(Cc1ccc(OC(=O)c2ccc(Cl)cc2)cc1)N1Cc2ccccc2C1=O (stereo unspecified) | inconclusive: 1.58 µM [activator, partial curve, poor fit] | – |
| C[C@H](NC(=O)CSc1nnc(COc2ccccc2)o1)c1ccccc1 | – | inactive: -23.1% |
| O=C(Nc1ccc(C(F)(F)F)cc1)C1CCCN(S(=O)(=O)c2cccc3cccnc23)C1 (stereo unspecified) | – | inactive: 11.3% [at 46.1 µM] |
| CN(Cc1ccccc1F)C(=O)c1cccc(NC(=O)CC2SC(N3CCCCC3)=NC2=O)c1 (stereo unspecified) | inconclusive: 25.1 µM [inhibitor, single point] | – |
| COc1ccccc1Nc1c2c(nc3ccc(NC(=O)c4cccc(OC)c4OC)cc13)CCCC2 | inconclusive: 0.562 µM [inhibitor, full curve, poor fit] | – |

| SMILES | Potency | activity change, negative = inhibition |
| --- | --- | --- |
| CCc1ccc(NC(=O)Cn2ncc3c(C)n(Cc4cccc(Cl)c4)c(C)c3c2=O)cc1 | inconclusive: 6.31 µM [inhibitor, single point] | – |
| C=CCOc1ccc(/C=N/NC(=O)CN2CCOCC2)cc1OCC | inconclusive: 6.31 µM [inhibitor, single point] | – |
| Cc1ccccc1NC(=O)CC(O)(C(F)(F)F)C(F)(F)F | – | inactive: 2.09% |
| O=c1c2cc(NC(=S)N3CCCC3)ccc2nc2n1CCCCC2 | – | inactive: -11.7% [at 46.1 µM] |
| CCOc1ccc(C(=O)CCC(=O)N2CCN(c3ccccc3O)CC2)cc1 | inconclusive: 35.5 µM [activator, single point] | – |
| C=CCN1C(c2ccc(Br)cc2)=CS/C1=C(\C#N)c1nnc(N2CCOCC2)n1-c1ccccc1 | inconclusive: 15.8 µM [inhibitor, partial curve, poor fit] | – |
| O=C(Nc1nccs1)c1cc(Cl)nc2ccccc12 | inconclusive: 1.12 µM [activator, single point] | – |
| COc1ccc(-c2noc(CSc3nnc(Cc4ccccc4)n3-c3ccc(Cl)cc3)n2)cc1 | inconclusive: 16.4 µM [inhibitor, partial curve] | – |
| Cc1cccc(N(Cc2ccccc2F)S(C)(=O)=O)c1 | – | inactive: -1.5% |
| CC1CCC/C(=C\Nc2ccc(C(=O)O)c(O)c2)C1=O (stereo unspecified) | – | inactive: -4.74% [at 46.1 µM] |
| Cn1c(C(=O)NCCN2CCc3ccccc3C2)cc2c(=O)[nH]c3ccccc3c21 | inconclusive: 25.9 µM [inhibitor, partial curve, poor fit] | – |
| COc1ccc(O)c(/C=N/NC(=O)c2ccc(N3CCCC3=O)cc2)c1 | inconclusive: 17.8 µM [inhibitor, single point] | – |
| COc1cc(C(=S)N(C)C)ccc1O | inconclusive: 6.31 µM [activator, full curve, poor fit] | – |
| CCN(C(=O)COC(=O)c1cc(C)n(-c2ccc(F)cc2)c1C)C1CCS(=O)(=O)C1 (stereo unspecified) | – | inactive: -8.66% |
| CCOc1ccc(-c2ccc(SCC)nn2)cc1 | inconclusive: 7.08 µM [inhibitor, partial curve, poor fit] | – |
| CCOc1ccc(Nc2nc3c(c(=O)[nH]2)CCC3)cc1 | inconclusive: 6.51 µM [inhibitor, partial curve] | – |
| COc1cccc(CNCCc2c[nH]c3ccccc23)c1OCc1ccccc1 | inconclusive: 22.4 µM [inhibitor, single point] | – |
| CCc1cc(C(=O)N/N=C/c2ccc(OC)cc2)c2ccccc2n1 | inconclusive: 3.16 µM [inhibitor, full curve] | – |
| CCOc1cc(N2CCOCC2)c(OCC)cc1NC(=O)Cc1ccc(OC)c(OC)c1 | inconclusive: 0.126 µM [inhibitor, full curve, poor fit] | – |
| COc1ccc(-c2cc3ncnc(Cl)c3s2)cc1 | – | inactive: -9.89% [at 46.1 µM] |
| CC(C)(C)C1CCc2c(sc(NC(=O)CCC(=O)O)c2C(=O)Nc2ccccc2C(F)(F)F)C1 (stereo unspecified) | inconclusive: 35.5 µM [inhibitor, single point] | – |
| CN1N=C2c3ccccc3CCC2C1c1ccc(Cl)cc1 (stereo unspecified) | inconclusive: 35.5 µM [activator, single point] | – |
| CCCCC(=O)Nc1ccc(NC(=S)NC(=O)c2ccco2)cc1OC | – | inactive: 13% [at 46.1 µM] |
